From patent US20140179519A1, “N-THIO-ANTHRANILAMIDE COMPOUNDS AND THEIR USE AS PESTICIDES” (BASF SE, priority 2011, published 2014)
Some entries share one result that the patent states for a list of compounds.

What was measured:
Type in all cases: in vivo
[1] = system: Tobacco budworm (Heliothis virescens); test: B.12 Tobacco budworm microtiter plate test on insect diet with eggs; conditions: 2500 ppm, egg and larval mortality after 5 days
[2] = system: Rice green leafhopper (Nephotettix virescens); test: B.8 Rice green leafhopper spray test on rice seedlings; conditions: 300 ppm; after 72 hours
[3] = system: Boll weevil (Anthonomus grandis); test: B.13 Boll weevil microtiter plate test on insect diet with eggs; conditions: 2500 ppm; egg and larval mortality after 5 days
[4] = system: Orchid thrips (Dichromothrips corbetti); test: B.7 Orchid thrips floral-immersion test; conditions: 300 ppm; 72 hours after treatment
[5] = system: Vetch aphid (Megoura viciae); test: B.11 Vetch aphid test on broad bean leaf disks in 24-well microtiter plates; conditions: 2500 ppm; 5 days
[6] = system: Mediterranean fruitfly (Ceratitis capitata); test: B.6 Mediterranean fruitfly microtiter plate test on insect diet with eggs; conditions: 2500 ppm; egg and larval mortality after 5 days
[7] = system: Diamond back moth (Plutella xylostella); test: B.4 Diamond back moth cabbage leaf dip test; conditions: 300 ppm; 72 hours after treatment
[8] = system: Green peach aphid (Myzus persicae); test: B.5 Green peach aphid systemic test, artificial diet in 96-well microtiter plates; conditions: 2500 ppm; 3 days
[9] = system: Silverleaf whitefly (Bemisia argentifolii); test: B.9 Silverleaf whitefly spray test on cotton plants; conditions: 100 ppm; 3 days after treatment

Measured: mortality in comparison with untreated controls

Cc1cc(Cl)cc(C(=O)N=S(C(C)C)C(C)C)c1NC(=O)c1cc(C(F)F)nn1-c1ncccc1Cl [Compound 25]
not listed: [9]
over 75%: all other assays above

Cc1cc(Cl)cc(C(=O)N=S(CC(C)C)CC(C)C)c1NC(=O)c1cc(C(F)F)nn1-c1ncccc1Cl [Compound 17]
over 75%: [9]

Cc1cc(Cl)cc(C(=O)N=S(C)C)c1NC(=O)c1cc(C(F)F)nn1-c1ncccc1Cl [Compound 4]
over 75%: [9]
